# Data taken from PubChem BioAssay AID493014 (National Center for Advancing Translational Sciences (NCATS), 2011).
# Some of the results follow. Further columns of the screen follow, without active or inactive calls. The list favours compounds with an active or inconclusive main result. Potencies come from curve fits of mixed quality, noted in brackets.
# Experiment: qHTS Assay to Find Inhibitors of Chronic Active B-Cell Receptor Signaling
# Conditions: ABC-DLBCL IkBa-CBG/CBR reporter, luminescence ratio (green luciferase fused to IkBa over red control in TMD8 lymphoma cells), 4 h
# In short: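 Doxycycline induced both beetle luciferases in TMD8 lymphoma cells; IKK-driven degradation limits the IkappaBalpha-fused green signal, while red luminescence normalises for cell number and nonspecific effects. Compounds tested up to 46 uM, 4 hrs.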
# [1] = measured here: CBR red luminescence, cell number
# [2] = measured here: IkBa-CBG green luminescence
compound,measurement,setting,value
COc1cccc2cc(C(=O)C3=C(O)C(=O)N(Cc4ccco4)C3c3cccnc3)oc12 (centres undefined),AC50,[1],"3.66 µM [falling, single point]"
same,AC50,[2],"6.51 µM [rising, partial curve, poor fit]"
CN(CC(=O)NCc1ccco1)CC(=O)Nc1ccc(F)c(F)c1F,AC50,[1],"23.1 µM [falling, partial curve, poor fit]"
COc1cc2cnc(C3=CCCCC3)cc2cc1OC,AC50,[1],"18.4 µM [rising, partial curve]"
Cn1c(=O)n(C)c2cc(/C=N/NC(N)=S)ccc21,AC50,[1],"12.6 µM [rising, partial curve]"
Cc1occc(=O)c1OCc1c(Cl)cccc1Cl,AC50,[1],"10 µM [rising, partial curve]"
Cn1nnc2cc(NC(=O)N3CCN(c4ccccn4)CC3)ccc21,AC50,[1],"0.291 µM [rising, partial curve, poor fit]"
O=C(CC1C[C@H](C(=O)N2CCCCC2)[C@@]2(CCc3ccccc3)c3[nH]c4ccccc4c3CCN2C1=O)NCCCn1ccnc1 (some centres undefined),AC50,[1],"23.1 µM [falling, single point]"
Cc1cccc(OCc2n[nH]c(=S)o2)c1,AC50,[1],"1.12 µM [rising, partial curve, poor fit]"
O=C1C=C(c2ccccc2)C[C@H](c2cccs2)[C@H]1n1nnc([N+](=O)[O-])n1,AC50,[1],"16.4 µM [falling, single point]"
same,AC50,[2],"4.61 µM [rising, full curve, poor fit]"
CCOC(=O)C1=C(C)Nc2ncnn2C1c1ccccc1F (centres undefined),AC50,[1],"7.31 µM [falling, partial curve]"
Cc1ccc2c(COC(=O)C3=COCCO3)cc(=O)oc2c1,AC50,[1],"14.1 µM [rising, single point]"
Cc1cc(C(=O)COC(=O)c2n[nH]c3ccccc23)c(C)n1CC1CCCO1 (centres undefined),AC50,[1],"7.94 µM [falling, partial curve]"
Fc1ccc(CCNC(=S)Nc2ccc(F)cc2)cc1,AC50,[1],"14.6 µM [falling, single point]"
N#Cc1c(N)sc2c1CCN(C(=O)OCc1ccccc1)C2,AC50,[1],"2.59 µM [rising, partial curve, poor fit]"
CCCN1Cc2cccc(C(=O)NCc3ccccc3OC)c2C1=O,AC50,[1],"2.31 µM [rising, partial curve]"
CCOC(=O)C(=Cc1ccc(F)cc1)C(=O)OCC,AC50,[1],"5.62 µM [falling, partial curve, poor fit]"
Cc1ccc(N2CC(=O)N(CC(=O)O)C2=O)cc1,AC50,[1],"5.62 µM [falling, single point]"
CCOC(=O)N1CCN(c2c(N3CCN(C(=O)OCC)CC3)c(=O)c2=O)CC1,AC50,[1],"35.5 µM [rising, single point]"
O=[N+]([O-])c1cccc2c(S(=O)(=O)N3CCCCC3)cccc12,AC50,[1],"31.6 µM [rising, single point]"
Cc1nc(C)n(CC(O)COc2ccc(C(=O)c3ccccc3)cc2)n1 (centres undefined),AC50,[1],"1.84 µM [rising, partial curve, poor fit]"
CC(=O)Cc1nsc(NC(=O)c2ccc(Cl)cc2Cl)n1,AC50,[1],"11.2 µM [rising, partial curve, poor fit]"
COc1ccc(OC)c(CCNC(=O)CC2Oc3ccccc3NC2=O)c1 (centres undefined),AC50,[1],"3.26 µM [falling, partial curve]"
CN1c2ccsc2C(O)=C(C(=S)Nc2ccccc2)S1(=O)=O,AC50,[1],"18.4 µM [falling, single point]"
CCN(Cc1cnn(C)c1)Cc1nc(C(c2ccccc2)c2ccccc2)no1,AC50,[1],"35.5 µM [falling, single point]"
CCN1c2ccccc2NC2C1C(C(C)=O)C(=O)N2c1ccc(Cl)cc1 (centres undefined),AC50,[1],"35.5 µM [falling, single point]"
CCOC(=O)N1CCC(NC(=O)c2cc(COc3ccccc3SC)on2)CC1,AC50,[1],"35.5 µM [falling, single point]"
Cc1cc(C(=O)N2CCC(Cc3ccccc3)CC2)no1,AC50,[1],"3.98 µM [rising, partial curve, poor fit]"
O=c1[nH]nc(Cc2ccccc2)c2ccccc12,AC50,[1],"5.17 µM [rising, full curve]"
Cc1ccc(N2CC(NC(=O)c3ccco3)CC2=O)cc1 (centres undefined),AC50,[1],"2 µM [falling, partial curve, poor fit]"
O=C1OCCN/C1=C\C(=O)c1ccc(Cl)cc1,AC50,[1],"17.8 µM [falling, single point]"
O=C(Cc1ccsc1)NNC(=O)c1cccc(Cl)c1,AC50,[1],"5.62 µM [rising, single point]"
COc1cc(/C=C/C(=O)OCC(=O)Nc2ccc3c(c2)OCCO3)ccc1OCC#N,AC50,[1],"13 µM [rising, single point]"
O=C(NC1CCCCC1)c1cc(C(=O)c2ccccc2Br)c[nH]1,AC50,[1],"3.98 µM [falling, partial curve, poor fit]"
O=C(NNC(=O)C1C2CCC(C2)C1C(=O)O)c1cccc(Cl)c1 (centres undefined),AC50,[1],"14.1 µM [falling, partial curve]"
Cc1ccc(NC(=O)CN(C)S(=O)(=O)c2ccc3[nH]c(=O)oc3c2)c(C)c1,AC50,[1],"12.6 µM [rising, partial curve]"
Cc1cccc(OCC(=O)NNC(=O)C2CCN(c3ncnc4sc(C)c(C)c34)CC2)c1,AC50,[1],"6.51 µM [falling, partial curve, poor fit]"
Fc1ccc(Br)cc1C1C=C(c2ccc(Br)cc2)Nc2ncnn21 (centres undefined),AC50,[1],"29.1 µM [falling, single point]"
CC(CN1C(C)CCCC1C)OC(=O)c1ccccc1Br (centres undefined),AC50,[1],"3.16 µM [rising, single point]"
COc1ccc(Cl)cc1N(C(=O)Nc1cccc(Cl)c1)C1=NCC(C)S1 (centres undefined),AC50,[1],"18.4 µM [rising, single point]"
CC(=C\c1ccccc1)/C=C1/SC(=O)N(CCCC(=O)Nc2ccc(C(=O)O)cc2)C1=O,AC50,[1],"10 µM [falling, partial curve]"
CNC(=O)/C=C1\NC(C)(C)Cc2ccccc21,AC50,[1],"14.6 µM [falling, single point]"
Cc1ccc(C2N(c3ccc(Cl)cc3)C(=O)N3CCCN23)cc1 (centres undefined),AC50,[1],"0.355 µM [rising, full curve, poor fit]"
O=C(NCc1ccco1)[C@@H]1CCCN1C(=O)c1cccs1,AC50,[1],"0.366 µM [rising, full curve, poor fit]"
O=C(NNC(=S)Nc1ccc(F)c(Cl)c1)c1ccccc1Br,AC50,[1],"15.8 µM [falling, single point]"
O=C(COc1ccc(/C=N/NC(=O)c2ccc(O)cc2)cc1)Nc1ccc([N+](=O)[O-])cc1,AC50,[1],"0.92 µM [falling, full curve]"
CC(OC(=O)c1cccs1)C(=O)NCc1cccs1 (centres undefined),AC50,[1],"31.6 µM [rising, single point]"
CN(C)/C=C1\C(=O)N(C)N=C1C(F)(F)F,AC50,[1],"35.5 µM [rising, single point]"
same,AC50,[2],"35.5 µM [falling, single point]"
O=c1c([N+](=O)[O-])c(NCCN2CCCCCC2)c2ccccc2n1-c1ccccc1,AC50,[1],"11.6 µM [falling, partial curve, poor fit]"
CN(C)C(=O)c1ccc(NC(=O)COc2ccc([N+](=O)[O-])cc2)cc1,AC50,[1],"12.6 µM [rising, partial curve, poor fit]"
Cc1ccc(-c2nc(CN(C)C)cc(CN(C)C)c2O)cc1,AC50,[1],"11.2 µM [falling, partial curve]"
O=C(CC1Oc2ccccc2NC1=O)NCCCN1CCCC1=O (centres undefined),AC50,[1],"23.1 µM [falling, single point]"
Cc1ccc(NC(=S)NCc2ccccn2)cc1,AC50,[1],"35.5 µM [falling, single point]"
CC(C)(C)Nc1nc(C(N)=O)nc(N2CCOCC2)n1,AC50,[1],"1.84 µM [rising, partial curve, poor fit]"
COCCCN(C(C)=O)c1nc(-c2ccccc2)cs1,AC50,[1],"0.259 µM [rising, full curve, poor fit]"
Clc1ccccc1C(c1nnnn1Cc1ccco1)N1CCN(Cc2ccco2)CC1 (centres undefined),AC50,[1],"35.5 µM [falling, single point]"
COc1ccc(NC(=O)c2oc3ccccc3c2NC(=O)c2ccco2)cc1,AC50,[1],"23.1 µM [falling, partial curve, poor fit]"
CCCCn1c(N)c(N(CC)C(=O)c2ccccc2C)c(=O)[nH]c1=O,AC50,[1],"3.16 µM [rising, full curve]"
Cc1nc2cccc(C(=O)NCc3ccccc3)c2o1,AC50,[1],"10 µM [falling, partial curve]"
O=C(CCl)Nc1ccc(Oc2cnc3ccccc3n2)cc1,AC50,[1],"10 µM [falling, partial curve]"
Cc1cc(C)c(NC(=O)C2CCCCN2C)c(C)c1 (centres undefined),AC50,[1],"0.259 µM [falling, full curve, poor fit]"
CCC1CCCCN1C(=S)NC(=O)c1ccco1 (centres undefined),AC50,[1],"29.1 µM [falling, single point]"
Clc1ccc(-c2nnc(-c3ccccc3)nc2N2CCSCC2)cc1,AC50,[1],"9.2 µM [falling, partial curve, poor fit]"
Cc1ccccc1N=C1NC(=O)/C(=C/c2cccnc2)S1,AC50,[1],"7.08 µM [falling, partial curve]"
COc1ccccc1CN(Cc1nc2ccccc2c(=O)[nH]1)C(=O)Nc1cccc(C)c1,AC50,[1],"14.6 µM [falling, single point]"
Cc1cccc(/C=C2\Sc3ccc(C(=O)N4CCOCC4)cc3N(C)C2=O)c1,AC50,[1],"20 µM [falling, single point]"
COC(=O)CN(c1nc(C)cc(OC)n1)S(=O)(=O)c1ccccc1,AC50,[1],"18.4 µM [rising, single point]"

# Three entries drawn at random from those above:
compound,measurement,setting,value
CCN1c2ccccc2NC2C1C(C(C)=O)C(=O)N2c1ccc(Cl)cc1 (centres undefined),AC50,[1],"35.5 µM [falling, single point]"
Cc1cccc(/C=C2\Sc3ccc(C(=O)N4CCOCC4)cc3N(C)C2=O)c1,AC50,[1],"20 µM [falling, single point]"
CC(=C\c1ccccc1)/C=C1/SC(=O)N(CCCC(=O)Nc2ccc(C(=O)O)cc2)C1=O,AC50,[1],"10 µM [falling, partial curve]"

# Another view of part of the listing above:
compound	measurement	setting	value
Cc1occc(=O)c1OCc1c(Cl)cccc1Cl	AC50	[1]	10 µM [rising, partial curve]
CC(=C\c1ccccc1)/C=C1/SC(=O)N(CCCC(=O)Nc2ccc(C(=O)O)cc2)C1=O	AC50	[1]	10 µM [falling, partial curve]
